Source: patent publication US5256820A, “1-alkyl-2-acyl-1,2-disulfonylhydrazines” (Yale University, priority 1991, dated 1993)
Some entries share one result that the patent states for a list of compounds.

Assay: Spontaneous decomposition (hydrolysis) in aqueous phosphate buffer, phenol red proton release assay
Assay type: physicochemical
Conditions: pH 7.4, 37° C.
Procedure: The compounds of the invention are relatively stable. As a measure of their stability, spontaneous decomposition in aqueous media was measured in phosphate buffer, pH 7.4 (37° C.). Hydrolysis at N-1 would result in the generation of a carboxylic acid and the corresponding 1,2-bis(methylsulfonyl)-1-(2-chloroethyl)hydrazine. Since both of these compounds are ionized under these conditions, the release of protons can be used to follow the decomposition of these and related compounds. The release of protons can be assayed by following the decrease in absorbance at 560 nm of a weakly buffered (1 mM potassium phosphate) phenol red (21 mg/L) solution. The assay has been calibrated using HC1 standards. […] The spontaneous hydrolysis of the compound of Example 1 at pH 7.4, 37° C. in 1 mM phosphate buffer occurs at approximately 0.7% of the rate of the corresponding prior art compounds [1,2,2-tris(methylsulfonyl)-1-(2-chloroethyl)hydrazine] under the same conditions. The rate of hydrolysis was highly sensitive to changes in temperature and pH (Tables II and III). […] At pH 7.4, 37° C., a 200 μM solution of the compound of Example 1 hydrolyzes at the rate of approximately 0.6% per hour. […] Therefore, stable aqueous solutions of this agent can be formulated. The other analogs synthesized according to Examples 2-6 also hydrolyzed at relatively slow rates.

Row | SMILES | stability / spontaneous hydrolysis (in words)
1 | CC(=O)N(N(CCCl)S(C)(=O)=O)S(C)(=O)=O [Example 1, 1-Acetyl-1,2-bis(methylsulfonyl)-2-(2-chloroethyl)hydrazine] | essentially stable under these conditions
2 | CCC(=O)N(N(CCCl)S(C)(=O)=O)S(C)(=O)=O [Example 2, 1,2-Bis(methylsulfonyl)-1-(2-chloroethyl)-2-propionylhydrazine] | essentially stable under these conditions
3 | CCCC(=O)N(N(CCCl)S(C)(=O)=O)S(C)(=O)=O [Example 3, 1,2-Bis(methylsulfonyl)-1-(n-butyryl)-2-(2-chloroethyl)hydrazine] | essentially stable under these conditions
4 | CC(C)(C)C(=O)N(N(CCCl)S(C)(=O)=O)S(C)(=O)=O [Example 4, 1,2-Bis(methylsulfonyl)-1-(2-chloroethyl)-2-pivaloylhydrazine] | essentially stable under these conditions
5 | COCC(=O)N(N(CCCl)S(C)(=O)=O)S(C)(=O)=O [Example 5, 1,2-Bis(methylsulfonyl)-1-(2-chloroethyl)-2-methoxyacetylhydrazine] | essentially stable under these conditions
6 | CS(=O)(=O)N(CCCl)N(C(=O)c1ccccc1)S(C)(=O)=O [Example 6, 1-Benzoyl-1,2-bis(methylsulfonyl)-2-(2-chloroethyl)hydrazine] | essentially stable under these conditions
